Laboratory results from publication PMC10434240.

Protein sequences, listed by entry. Tags and fused reporters are not part of them.
UniProt P90623: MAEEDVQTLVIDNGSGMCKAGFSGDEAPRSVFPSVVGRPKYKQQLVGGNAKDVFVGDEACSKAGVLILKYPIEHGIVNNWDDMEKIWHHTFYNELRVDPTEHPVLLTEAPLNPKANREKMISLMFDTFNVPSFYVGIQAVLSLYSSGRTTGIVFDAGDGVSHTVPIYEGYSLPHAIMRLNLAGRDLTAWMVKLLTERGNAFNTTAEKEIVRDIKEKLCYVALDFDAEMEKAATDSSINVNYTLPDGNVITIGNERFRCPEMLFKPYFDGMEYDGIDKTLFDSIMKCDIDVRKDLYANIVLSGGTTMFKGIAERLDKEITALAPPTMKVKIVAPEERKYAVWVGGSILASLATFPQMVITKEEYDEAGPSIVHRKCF

Biological target: HA-TvActin (Trichomonas vaginalis) (UniProt P90623)
Assay: affinity purification with mass spectrometry; HA-TvActin immunoprecipitated with anti-HA agarose beads from lysate of transgenic TH17 trophozoites (1% Triton X-100, 5 mM EDTA in TBS, 4°C overnight); SDS-PAGE, LC-MS/MS, label-free emPAI

| Binder | binding |
| --- | --- |
| 6-Phosphofructokinase (TVAG_462920) (enzyme, UniProt A2DM03 1-324) MKSIGILTSGGDSAGLNAIVRSATRYGIEKGLKVYGINRGYLGLVDGKIFELNSRSVSGKLGLGGTFIGTARLPSWKEPKVRREAIRTLNRFSIDGLIVVGGNGSLAGANLLQKDGFPVIGLPGSIDDDVYGTDVCIGVDTALNIIIEAIERIRDCASSIQRAFVVEVMGRDSGALALMAAAAAGAEVCLVPEGKNPSMEEIAKTITQAYTRGKPHAIIVVAEGWKPGTKALIDYLKSIEDQTGFDVRTTVLGYTQRGGAPSYRDRYYGTIMGMAAVDALLAGESGKMVGIKDEKVNLVPFEDLVGKLKPLNEDLYKLYKQLEQ | binds |
| 6-Phosphofructokinase (TVAG_293770) (enzyme, UniProt A2FKA7 1-326) MSLKNIAVLTSGGDNAGLNAAVRAITRVGIARNVNVYGVLRGYRGLVEGQIFELNSRAVSGKMGLGGTFIGTARLPEWKDPKVRREAIRNMNRHDIGGLIVIGGNGSLSGASLLAKDGFPVIGMPGSIDDDVMGTEVCVGVDTALNIIIEAIDRIRDCASSIQRAFVIEVMGRDSGALALMSAAATGAEVCLVPEIPSPPMEKIADAITNAYTKGKPYAIIVVAEGWKPGINKLVEFLNSKQDETGFDVRTTVLGYTQRGGSPSYIDRYYGTAMGAFAVDSLLAGETNKFVAVQNGKPCLQPLDTLVGKLKPLNKNLLDLYNKLDN | binds |
| Glyceraldehyde-3-phosphate dehydrogenase (enzyme, UniProt A2EM29 1-361) MVVKVAINGFGRIGRLVFRACRKLYPKDIKVVAIHDLGDIKTNVYLLKYDTAHRAFPEPVTVDEVKQEFTVGEGADKWVVKSIGGRLGPSQLPWKELGIDVVLESTGIFRTKAQKDAEGKITKDGYDGHLVSGAKKVVLSVPSADEIECTLVLGVNDEDLKPETRCISNASCTTNCLGPVAKTLNNAFGIRNGFMTTVHSYTNDQVVADTMHKDLRRARAAGMNIIPTSTGAAIALPKVCHGLPPKSLDGFALRVPTITGSLVDLTVNVNAKVTKEEVNAALKKATEEGSLKGIMTYVTDPIVSSDIIGCQYSSIVDALSTKVLPNPEGQGTLVKVLSWYDNEWMYSCRCADIFHRLEKYL | binds |
| Malic enzyme (enzyme, UniProt A2EAJ8 1-398) MSVKKDYASLSVAAHKEWRGKIETVARCKVEDKDDLSIAYSPGVAQPCLEIQKNPALSYELTRRWNTVAVITDGTAVLGLGDIGPEAGMPVMEGKALLFKRFGDVDAIPLCVRSKNVDDIVKVVSLIAGSFGGVNLEDISAPRCFEIEKKCQEICDIPIFHDDQHGTAIVTLAALLNALKLVGKKIEDVKIVTSGAGAAGIAIIKLLVAVGVNPKNVILTDRQGAIYKGRSGLNDIKVEMAEITNSELKQGTLGDVIKGVDVFIGVSAPKTLTQEMVKSMAEKPIVFAMANPIPEIMPEEAKEAGAIVVGTGRSDYPNQINNVLAFPALFRGALDVRSSRITNEMNIAAARAIASLVSDAELTPEYILPKPFDPRIKETVSKAVAAAAIKSGVARIQQ | binds |
| Thymidine kinase (enzyme, UniProt A2DM76 1-348) MQVGRIEVVVGPMFAGKTTEMLRRIDRAELGRRRCVVMKYDKDQRYSTDKVSTHDQYMHDAIPCNELMPHFNECLAYETIGIDEGQFFPDVVEFSEKLANYGKTVIVAALDGTFQRKPFGSVLELMAKCESLTKLTAVCCKTGGEAAFSKRTVNSDSIELIGGAESYTAASRSAFFGTNTSGEIHLTVGPVKSGKTTELLRVLNRYVIAGRKVVCIRPEDVVDHHNPKFEMKLVRDLPDIASLSNYDVIGIDEAQKFKNLADWADELANSGKIVMVSAVDGDEQHHAYPGIIELFPRCEKVMKLDSVCPLTGLPAPFSAVIDGIRMIPISRLGIMYQQSLGLALTAAH | binds |
| Succinate-CoA ligase (ADP-forming) subunit β, mitochondrial (TVAG_183500) (enzyme, UniProt A2D987 1-409) MLSASSNFARNFNILEWQSKEICAKFNVAAGINVVARTPEEAAAAFKKIGLPAAVIKAQVYCGGRGKGHWKETGFKSGVHFVKSADEAAKIAKEMLGHHLVTKQTGKDGLLCQAVMLSDPVEVKRELYFAILLDRQTQSPVVIASTEGGVEIEEVAAKHPEKIHKFVLDGVQGITEEVAQTISKKLGLTGKAYENGVEEMQKLWKLFVGSDATQVEVNPLAETTDGRIITVDSKFNFDDSAHYRQKQIFGYRDLKQVNPFEIRAEKYGLNYVPLDGNVACLVNGAGLAMATMDVIKLAGGDPANFLDLGGAASEAAVTEGFTIISSQSHVKAILVNIFGGIVRCDMVAAGVIAAFKKVGLKVPLVVRLEGTNVDAGKKLLRESGLPIIPADNLTDAGIKAVKAANGEKL | binds |
| 6-Phosphofructokinase (TVAG_391760) (enzyme, UniProt A2DFT9 1-323) MKRIAVLSSGRDVSGANAAIRSIVRMGGKYGMHVFGITGGFRGLYEDYIAALTSRDVSGKIGKASSFIGTSHAFEYLEDSKIQRCLANLNKRSIEGLIVVGGGGSFAHSRVLADKGVPIIGIPASIQDDVVGTDICLGVDTAVNNIMDCIDHIRSCDSSRNRSFLVQVEGRHSGNLAARSALVTGAEICLIPEHNGRPLEEIYQKVQKSLDTGKTQCITIVSSGWKPGMKALANYIEDKDKENDLIIRQTILGYIQRGGSPSGFDRLLGTRMGAAAVEALNAGNKNHFISLQNSKLEVIPIEDTVGKYRPVDPALFEMIKSTF | binds |
| Amylomaltase (TVAG_154680) (enzyme, UniProt A2F259 1-930) MNSIAANGVTVHFHVRVSTAFGQEVLISGNIPELGNWDAEKAIKMQFEQNLDYWTANVEIPKSKEQRVVEYKYIISNGDNKQWEPEQNHKLVLGEINENVIINVEDHFHWRDNVLDAFSRATFVGAINSRESPVKSEPISVKQTGDAIQTYFTTNCPYVRPNQVLRIVGNVPELGNWDPKKSLVLADGCFPIWTGNKVFAKSSFPFEYKYVIENKDNNTFIWEDCENRICPTPVSADGKIMNYVQDWFVSPNKDLFKGMGIYVPLFSLRTNESQGIGSYTDLKKCVDACNKMGASLIQLLPINDTTEKGEWCDSYPYRQVSCFALHPVYIDLLAITSKLPAAMKKEIIEAKEKFEKFEQVEYPEVFAFKMKYLKQIFKLEKNEFAKNDLEKFLKKNGSWLKPYALFCLLRDEYKTTEFRKWPKYSTITPAELEEACEKKKNELLEIYWIQYVADKQFEESYDYATKNHVALKGDLPIGVNINSVECWAFPQLFRLHMCAGAPPDDFSSDGQNWGFPTYDWEAMEKDGFSWWRSRLTRMAELYHQLRVDHILGFFRIWEVPRETCVRGLLGHFFPSVPFSRDELNGMGLWDIDRLTKPYIRWHILCEKFQGDAEYVSHKYFNSKGWNAQDDYYEFKPEYDNEKKVLQALENDKTLSDEKREHFKYCLFQLIGNVILIEDPERKGFYHMRTEVIKDHVEATKEGPIVYVSSSWNELDEGLKQRVKEEAHKFFYERMTNLWVQKAQPKLNVLKNATKMLICGEDLGQITAGIIRAIDESAILSLHVQRMSKIPEEDFDDFHKFGYLSVACPSTHDTSSLRGWWEETKATRENFWYNILRRHDACPETLSPEVQEDILKQNIWSNSMWAIFLLQDITSIFPELRLQSAEAERINIPADPNHKWRYRYPYKLEELIANDKLNNHVMQLVRDSHRI | binds |
| Amylomaltase (TVAG_120280) (enzyme, UniProt A2D7H3 1-930) MNFISSNGVIVHFHVRVSTTFGQEVFVSGNIPELGNWDSEKSIKMHFEQNLDYWTVDVELQKSKDPRIVEYKYIISNGDNKQWEPEQNHKLVLGEINENCIINIEDHFHWRDNVLDAFSRATFVGAINSRESPVKSEPITVKQTGDAIQTYFATNCPYVRPNQVLRIVGNVPELGNWDPKNSLVLADGCFPAWTGNKVFAKSSFPFEYKYVIENKDNSTFIWEECENRVCPVPVLSDGKVINYIQDWFVSPNKDLFKGMGIYVPLFSLRTNDSQGIGSYTDLKKCVDACNKMGASLIQLLPINDTTEKGEWCDSYPYRQVSCFALHPVYIDLLAITDKIPAAMKKEIVEAKERFEKFEQVEYPEVFAFKMKYLKEIFKLEKDNFVKDGLEQFLKKNGSWLKPYALFCLLRDEYKTTEFRKWPKYSTITPAELEQVCEQKKNDLLEIYWIQYVADKQFKESYDYATKNHVALKGDLPIGVNINSVECWAFPQLFRLHMCAGAPPDDFSSDGQNWGFPTYDWEAMEKDGFSWWRSRLTRMAELYHQLRVDHILGFFRIWEVPRETCVRGLLGHFFPSVPFSRDELNGMGLWDIERLTKPYVRWHILCEKFHEDAEFVSHKYFNNKGWDAKDDYYEFKPEFDNEKNVAQALDNDKTLSEEKREHYRCCLFQLIGNVILIEDPERKGFFHMRTEVLKDHVEPTKEGPVVYVSSSWNELDEGLKQRVKEEAHKFFYERMTDLWVQKAQPKLNVLKNATKMLICGEDLGQITAGIIRAIDESAILSLHVQRMSKIPEEDFDDFHKFGYLSVACPSTHDTSSLRGWWEETKATRENFWYNVLLRHDACPETLSCEVQEDILKQNIWSNSMWAIFLLQDITSIFPELRLQSADAERINIPADPNHKWRYRYPYKLEDLIANDKLNNHVMQLVRDSHRI | binds |
| Chaperonin subunit α1 CCTα, putative (protein, UniProt A2E9D9 1-543) MLPVTPGSLKIDGQRQQGENVRVQNVRAAMAVANVVRSSLGPIGLDKMLVDDIGEVTITNDGATILNHLDVQHPAGKVLIQLSELQDREVGDGTTTVVLLAAELLRLGQDLINKKVHANTIITGYRAAAKKAIAFLKKSCAVSNDNLDREILLKVAKTSMNSKILNAYSDFFGNMVVDACLAVKTPAGKCPTNRVNIVKSLGKSLPESTIVTAGVALNATRATEAFPRRLEKVKVAVLDFGLQRTRLPMGIQFRLHDASKLEAIQQEEVNAAERAVQAILKAGANVIVTSKTIDEASLKPLVKAGAIGIRHVSDAEIAHLARSTGATVVSQLISEDGGETFDPAWLGEAELIEQVPVGDNQMTIFRGCAKENSASIVLRGPNTFTLEEANRSLRDALFAVKRVIESKHIVAGGGAVEAALSVYLSQIAKDYEGKEQVAMLKFGEALLVIPKILANNAALDSIDLVAKLRAVHYDAQQKGEKCFAALDLVNGKIRDGMKDGVIEPGMSKVKSIQFATEAAITILRIDDLIKVTPEKKPDRNEEE | binds |
| Proteasome/cyclosome repeat family protein (protein, UniProt A2EPF2 1-850) MAEDQLQQTPDEILIETLRTNVEKACNGDLQTRLAAVAVLVEELKKSTSSMTSVPKPMKHLLPYLEELTRAYNTYTNEEFRKKIADLLSLLSIINVDTKYDVLLYRLECPVENIGFWGHEYVRCLTLNLIKASKNLQDLPSGIDINPLVDQISKYYMTHNDEPDACDLLLELNRLEDIVPLVDEESHNRVCTYLLQLYDYKPEPINTNILRVLVTIYKKLNKVNQALIMALKLNDRELAVDIFRNCEDKLVQKQFAFLLARQLIVFDDLMDDELLNIAQNFDLHNLYNKVAEHLGRNKPKTPDDILQFQASIGNRNAQREDKANLGMAKCFVSAFYNAAIKKDLYFTTDTDNKIIRERNVGVGRAVAVASIAMLHLWDIMTGTNNLLYYQSDEDSSDPYVTMGALAGIGLITAAVRSDYDTARALLTPRLENKNQNENVLVGAILGLAFAYGGKADDDLLELLKPHISLDNFRVCAMACLAVGMIYVGHPSDPALVAISQILYDLNETTANAQNAPYLPFLALAIGLIFMGQQGDAIQAALEILSTINSQYAEFFKVVLESLAYAGTGNVLQIQNMLRVCTGDNSISHAAAVIGIAIIALGDPIGTQMSKRMFELILQYGKPNARKMVPIAIALTSISQPLPELVDQLHRIGHDPDVNVARAACVALGLIGAGTNNTRVINTLFALELYHKNDTSVLTLLRNSVGLTHLGQGLMTLSPTYGDGLLIHQVALASLLAVAYSCMNSEELLIKKDPLLLFFIVPAIGPRFLVTLDENLEILPLQVRVGQAVDVVGQAGKPRKITGFQTLDTPVVLEAERELSLLMIHTNFVASWKVLLFVRKRENKANEEKQQ | binds |

No constants are given. Whether binding was seen depends on the method and setting. Binding seen in cells or lysates may run through a third protein. These calls come from enrichment with a bait or labelling near it, and not all partners need be listed.
